Test results from article PMC7948952, “Structural basis for multifunctional roles of human Ints3 C-terminal domain” (The Journal of Biological Chemistry, 2020).
Results are given in words; binding and its absence hold for the method and conditions named. For some of these results: In cells and extracts the contact can be indirect. Some binding calls cover weakened binding; strength is not graded here. Each block holds one molecule with its values, some of them ahead of it.

Sequences of proteins named here, by UniProt entry; tags and fusion partners are left off. A change or cut given only in a name is not applied to a line headed by its entry. A line that says so, or that is headed by a name, gives the form on record, which may keep a tag or linker. Residues count along the entry.
Ints3-555-976 in pRSFDuet-1 (His-tagged), coexpressed with GST-Ints6-807-887 (Q68E01, residues 556-977): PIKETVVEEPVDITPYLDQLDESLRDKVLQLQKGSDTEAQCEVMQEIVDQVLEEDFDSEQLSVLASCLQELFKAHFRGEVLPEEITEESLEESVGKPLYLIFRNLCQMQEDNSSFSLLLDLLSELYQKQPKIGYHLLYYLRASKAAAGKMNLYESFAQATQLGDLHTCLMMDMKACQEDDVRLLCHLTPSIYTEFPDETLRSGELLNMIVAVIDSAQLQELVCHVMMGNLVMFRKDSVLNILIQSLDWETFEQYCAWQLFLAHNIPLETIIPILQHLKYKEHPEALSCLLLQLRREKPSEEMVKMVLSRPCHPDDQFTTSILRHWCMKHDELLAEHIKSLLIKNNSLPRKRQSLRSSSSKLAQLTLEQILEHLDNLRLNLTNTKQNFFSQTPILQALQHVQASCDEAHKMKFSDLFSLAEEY
Ints3-555-899 in pRSFDuet-1 (His-tagged), coexpressed with GST-Ints6-807-887 (Q68E01, residues 556-900): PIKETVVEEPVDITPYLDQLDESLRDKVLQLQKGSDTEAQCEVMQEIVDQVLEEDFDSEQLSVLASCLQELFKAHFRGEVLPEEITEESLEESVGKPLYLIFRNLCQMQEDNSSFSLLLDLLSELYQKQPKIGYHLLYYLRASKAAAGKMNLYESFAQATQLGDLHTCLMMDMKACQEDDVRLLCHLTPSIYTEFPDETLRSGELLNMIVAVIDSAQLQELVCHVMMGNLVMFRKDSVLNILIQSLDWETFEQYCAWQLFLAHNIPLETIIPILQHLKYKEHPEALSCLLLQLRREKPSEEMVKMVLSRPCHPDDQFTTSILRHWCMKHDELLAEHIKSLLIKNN
GST-tagged Ints3-555-976 M780A/M781A (coexpression with MBP-Ints6-807-887) (Q68E01-2, form named): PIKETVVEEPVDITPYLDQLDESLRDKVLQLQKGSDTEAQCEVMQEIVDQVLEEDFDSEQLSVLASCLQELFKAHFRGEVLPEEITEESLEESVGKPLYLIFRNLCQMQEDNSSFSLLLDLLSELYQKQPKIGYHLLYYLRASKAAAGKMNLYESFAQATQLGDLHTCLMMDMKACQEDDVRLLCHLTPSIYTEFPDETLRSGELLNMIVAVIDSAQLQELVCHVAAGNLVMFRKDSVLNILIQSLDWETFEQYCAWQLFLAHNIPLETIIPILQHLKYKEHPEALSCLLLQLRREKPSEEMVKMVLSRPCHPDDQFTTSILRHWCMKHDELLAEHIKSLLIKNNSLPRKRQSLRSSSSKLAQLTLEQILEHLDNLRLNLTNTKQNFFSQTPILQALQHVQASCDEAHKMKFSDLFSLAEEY
GST-tagged Ints3-555-976 R877E (coexpression with MBP-Ints6-807-887) (Q68E01-2, form named): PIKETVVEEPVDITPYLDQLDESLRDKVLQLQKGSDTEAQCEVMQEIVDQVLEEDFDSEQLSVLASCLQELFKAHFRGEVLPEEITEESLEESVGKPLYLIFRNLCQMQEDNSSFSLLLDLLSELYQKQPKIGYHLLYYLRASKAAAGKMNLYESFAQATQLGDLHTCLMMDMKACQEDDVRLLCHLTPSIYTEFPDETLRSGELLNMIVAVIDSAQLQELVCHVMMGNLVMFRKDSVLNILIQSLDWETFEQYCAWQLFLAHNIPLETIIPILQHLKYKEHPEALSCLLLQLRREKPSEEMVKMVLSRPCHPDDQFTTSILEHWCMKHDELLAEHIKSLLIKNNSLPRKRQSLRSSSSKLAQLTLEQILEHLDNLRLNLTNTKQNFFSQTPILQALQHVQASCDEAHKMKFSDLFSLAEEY
GST-tagged Ints3-555-976 R877E/K882E (coexpression with MBP-Ints6-807-887) (Q68E01-2, form named): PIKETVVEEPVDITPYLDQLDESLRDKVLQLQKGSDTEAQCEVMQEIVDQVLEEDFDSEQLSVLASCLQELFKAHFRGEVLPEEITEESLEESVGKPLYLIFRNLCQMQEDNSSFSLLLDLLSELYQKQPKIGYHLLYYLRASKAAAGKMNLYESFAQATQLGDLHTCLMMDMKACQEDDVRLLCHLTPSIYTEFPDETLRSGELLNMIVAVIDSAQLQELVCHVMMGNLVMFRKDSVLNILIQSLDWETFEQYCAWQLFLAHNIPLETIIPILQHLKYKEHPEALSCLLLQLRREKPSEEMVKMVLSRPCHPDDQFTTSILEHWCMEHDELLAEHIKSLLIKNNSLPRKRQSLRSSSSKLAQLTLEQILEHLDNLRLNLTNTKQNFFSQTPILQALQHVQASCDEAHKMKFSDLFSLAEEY
Flag-tagged full-length Ints3, wild type (Q68E01-2, form named): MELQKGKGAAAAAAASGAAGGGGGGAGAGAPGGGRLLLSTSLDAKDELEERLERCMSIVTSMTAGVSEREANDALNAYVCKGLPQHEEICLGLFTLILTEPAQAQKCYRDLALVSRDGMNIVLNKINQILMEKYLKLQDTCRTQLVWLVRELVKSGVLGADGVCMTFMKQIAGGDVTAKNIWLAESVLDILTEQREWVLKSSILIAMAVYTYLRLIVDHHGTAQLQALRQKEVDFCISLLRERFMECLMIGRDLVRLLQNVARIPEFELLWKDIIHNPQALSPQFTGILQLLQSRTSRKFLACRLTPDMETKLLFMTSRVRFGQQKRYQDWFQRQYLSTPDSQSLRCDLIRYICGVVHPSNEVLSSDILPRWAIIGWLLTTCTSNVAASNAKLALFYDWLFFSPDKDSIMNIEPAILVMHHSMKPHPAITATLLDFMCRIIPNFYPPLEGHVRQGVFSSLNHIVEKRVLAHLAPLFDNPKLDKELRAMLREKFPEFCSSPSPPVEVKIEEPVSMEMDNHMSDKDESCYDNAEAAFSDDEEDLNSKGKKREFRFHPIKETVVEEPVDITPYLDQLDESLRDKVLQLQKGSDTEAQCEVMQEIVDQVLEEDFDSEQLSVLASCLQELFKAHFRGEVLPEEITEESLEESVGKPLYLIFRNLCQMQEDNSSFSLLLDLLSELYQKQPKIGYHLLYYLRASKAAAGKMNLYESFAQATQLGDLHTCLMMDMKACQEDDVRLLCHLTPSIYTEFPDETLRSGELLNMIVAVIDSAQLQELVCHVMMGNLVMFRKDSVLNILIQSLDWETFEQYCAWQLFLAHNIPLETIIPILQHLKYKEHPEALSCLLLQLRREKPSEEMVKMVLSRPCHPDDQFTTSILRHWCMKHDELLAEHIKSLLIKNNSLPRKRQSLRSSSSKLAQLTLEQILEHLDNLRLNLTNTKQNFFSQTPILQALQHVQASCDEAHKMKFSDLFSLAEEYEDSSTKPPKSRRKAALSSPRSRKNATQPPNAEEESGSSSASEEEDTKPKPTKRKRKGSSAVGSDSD
GST-tagged Ints3-555-976 D768A/Q771A (Q68E01-2, form named): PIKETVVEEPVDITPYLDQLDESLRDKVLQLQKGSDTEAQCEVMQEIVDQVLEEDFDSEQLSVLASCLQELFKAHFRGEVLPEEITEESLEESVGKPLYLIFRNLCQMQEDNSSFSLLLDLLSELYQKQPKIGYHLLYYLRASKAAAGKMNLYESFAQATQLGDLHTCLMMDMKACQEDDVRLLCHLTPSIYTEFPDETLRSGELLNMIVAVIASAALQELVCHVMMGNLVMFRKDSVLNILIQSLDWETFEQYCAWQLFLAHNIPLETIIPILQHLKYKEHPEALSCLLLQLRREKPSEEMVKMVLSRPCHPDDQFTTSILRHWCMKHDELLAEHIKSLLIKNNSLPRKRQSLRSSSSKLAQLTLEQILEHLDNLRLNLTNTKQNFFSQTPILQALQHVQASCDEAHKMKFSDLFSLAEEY

Columns and labels:
GST-tagged Ints6-807-887 = GST-tagged Ints6-807-887 (UniProt Q9UL03); assay: pull-down; coexpression in E. coli BL21-CodonPlus (DE3)-RIPL of Ints3 (pRSFDuet-1) and GST-tagged Ints6-807-887 (pGEX-6p-1); complex retrieved by GST-tagged Ints6-807-887 and copurified
[1] = target: Ints3-555-976 M780A/M781A (human) (UniProt Q68E01); assay: SEC; Superdex 200 Increase 10/300 Gl, 100 μl of approximately 2 mg/ml, 0.5 ml/min; wild-type and mutant Ints3-555-976; both purified
[2] = target: Ints3-555-976 R877E (human) (UniProt Q68E01); assay: as above
[3] = target: Ints3-555-976 R877E/K882E (human) (UniProt Q68E01); assay: as above
[4] = target: Flag-tagged full-length Ints3, wild type (human) (UniProt Q68E01); assay: co-IP; HEK 293T transfected with Flag-tagged Ints3 and V5-tagged Ints6 full-length constructs; IP with anti-Flag M2 agarose (V5 blot) or anti-V5 agarose (Flag blot); 20 mM Hepes pH 7.9, 300 mM NaCl, 0.4% Nonidet P-40
[5] = target: GST-tagged Ints3-555-976 M780A/M781A (coexpression with MBP-Ints6-807-887) (human) (UniProt Q68E01); assay: pull-down; coexpression in E. coli of GST-tagged Ints3 constructs (pGEX-6p-1) and MBP-Ints6-807-887 (pRSFDuet-1), GST or MBP pull-down ('coexpression and reverse pull-down')
[6] = target: GST-tagged Ints3-555-976 R877E (coexpression with MBP-Ints6-807-887) (human) (UniProt Q68E01); assay: as above
[7] = target: GST-tagged Ints3-555-976 R877E/K882E (coexpression with MBP-Ints6-807-887) (human) (UniProt Q68E01); assay: as above
[8] = target: GST-tagged Ints3-555-976 D768A/Q771A (human) (UniProt Q68E01); assay: as above

- binding (GST-tagged Ints6-807-887): binds
Molecule: Ints3-555-899 in pRSFDuet-1 (His-tagged), coexpressed with GST-Ints6-807-887 (from UniProt Q68E01-2 555-899) (domain or fragment)

- binding [1]: binds weakly
Molecule: Ints3-555-976 M780A/M781A (from UniProt Q68E01-2 555-976) (domain or fragment)

- binding [2]: binds weakly
Molecule: Ints3-555-976 R877E (from UniProt Q68E01-2 555-976) (domain or fragment)

- binding [3]: binds weakly
Molecule: Ints3-555-976 R877E/K882E (from UniProt Q68E01-2 555-976) (domain or fragment)

- binding (GST-tagged Ints6-807-887): binds
Molecule: Ints3-555-976 in pRSFDuet-1 (His-tagged), coexpressed with GST-Ints6-807-887 (from UniProt Q68E01-2 555-976) (domain or fragment)

- binding [4]: binds
Molecule: V5-tagged full-length Ints6 (from UniProt Q9UL03 1-887)

- binding [5]: binds
- binding [6]: binds
- binding [7]: binds
- binding [8]: binds
B1: MBP-Ints6-807-887 (domain or fragment, UniProt Q9UL03 807-887, looked up)
chain: EVNTELKAQIMKEIRKPGRKYERIFTLLKHVQGSLQTRLIFLQNVIKEASRFKKRMLIEQLENFLDEIHRRANQINHINSN
notes: Integrator complex subunit 6 (Ints6, DDX26a), residues 807-887; cDNA from DNAsu; Made in a modified pMal-c2X vector: an AAAEF linker and no protease site stand between MBP and Ints6-807-887; the MBP-Ints6-807-887 region was then cloned into pRSFDuet-1; also called MBP-tagged Ints6-807-887; source: E. coli BL21-CodonPlus (DE3)-RIPL, purified (amylose resin, HiTrap Q); also coexpressed with …
